Consider two molecules from paper PMC9468113.

Assay [1] deals with T1, endogenous MIF in human platelet preparations and thrombus tissue (human (endogenous in platelets and thrombus tissue)) (UniProt P14174).
T1 sequence: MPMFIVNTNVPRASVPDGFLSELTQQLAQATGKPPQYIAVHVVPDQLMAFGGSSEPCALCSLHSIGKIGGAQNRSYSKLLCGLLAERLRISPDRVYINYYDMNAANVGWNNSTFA
Put plainly: proximity ligation; Duolink PLA on cryosections of human thrombi from PAD patients; mouse anti-MIF D2 and rabbit anti-CXCL4L1 PA5-21944.

Assay [2] has as its target T2, biotinylated human MIF (macrophage migration inhibitory factor) (human) (UniProt P14174).
T2 sequence (chain, biotin (NHS ester labelling; positions not stated)): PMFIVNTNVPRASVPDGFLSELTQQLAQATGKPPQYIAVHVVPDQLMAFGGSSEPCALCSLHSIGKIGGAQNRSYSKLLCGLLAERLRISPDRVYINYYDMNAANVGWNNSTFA
Put plainly: pull-down; semi-endogenous pull-down: precleared MonoMac6 lysate incubated with biotin-MIF overnight at 4 °C, captured on streptavidin paramagnetic beads; Western blot for CXCL4L1 and MIF; only the target purified. (In general: Immunoblotting shows a protein as a band on a membrane.)

Results are given in words; binding and its absence hold for the method and conditions named. Binding seen in cells or lysates may run through a third protein. Some results given as binding are weak or reduced against the parent protein; the word gives no strength.

B1: endogenous CXCL4L1 in human platelet preparations and thrombus tissue (protein, UniProt P10720 31-104)
chain: FARAEAEEDGDLQCLCVKTTSQVRPRHITSLEVIKAGPHCPTAQLIATLKNGRKICLDLQALLYKKIIKEHLES
For the molecule B1, the binding entry in assay [1] was “binds”.

B2: endogenous CXCL4L1 from MonoMac6 lysates (protein, UniProt P10720 31-104)
chain: FARAEAEEDGDLQCLCVKTTSQVRPRHITSLEVIKAGPHCPTAQLIATLKNGRKICLDLQALLYKKIIKEHLES
Take B2: in assay [2], the binding result is on record as “binds”.
